According to the supplement of paper PMC10338343:
± gives the standard deviation. Only a part is listed here, and it is no random draw. Many entries were measured with a wide error.

System: MILI (PIWIL2) piRISC loaded with L1MC piRNA (26 nt)
Assay: pre-steady-state target cleavage rate (min^-1); MIWI and MILI are mouse PIWI proteins and EfPiwi is from a freshwater sponge; tags in brackets are library labels; higher = faster piRNA-guided slicing of the target
Settings: guide: L1MC piRNA 5'p-UAACUAAAUACUAUGCAAGCUGUAGG; auxiliary factor: 500 nM mouse GTSF1
Procedure, shortened: (§1)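 The pre-steady-state cleavage rate was obtained by Cleave-'n-Seq with a burst-and-steady-state fit. A transcribed, DNA-blocked target RNA library (0.1 nM) was mixed with 1 nM active affinity-purified piRISC carrying one synthetic guide, with or without 500 nM GTSF1 partner protein, in HEPES–potassium acetate buffer at 33 °C for 0–8 or 0–960 min. Uncleaved targets were sequenced and normalised to depth and to weakly complementary targets, with three trials pooled and k3 capped at 0.0001 min^-1.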

Sequence	pre-steady-state target cleavage rate
UCCUGGUUCAGCUUGCAUAGUAUUUAGUAA	0.144 ± 0.028
UCCUGGAUGUCGUUGCUUACUAUUUAGUUA	0.00175 ± 0.0079
UCCUGGAUCAGCUUGGAUUGUAUUUAGUUA	0.00167 ± 0.0061
UCCUGGAUGUCCUUGCGAUAGUAUUUAGUUA	0.00182 ± 0.0062
UCCUGGAUGUCGUUGCAUAGUAUAAAGUUA	0.0728 ± 0.018
UCCUGGAUGUCGAAGCAUGGUAUUUAGUUA	0.0111 ± 0.0048
UCCUGGAUGAGCUUGCGAUAGUAUUUAGUUA	0.00167 ± 0.0057
UCCUGGAUGUCGUUGCAUACAUUUUAGUUA	0.00108 ± 0.0091
UCCUGGAUCAGCUUGCAUACAUUUUUCAAA	0.000822 ± 0.011
UCCUGGUACAGCUUGGUAAGUAUUUACAAA	0.00277 ± 0.0058
UCCUGGAUCCAGCUUGCAUAGUAUUUAGUUA	0.3 ± 0.017
UCCUGGAUGUCGAUGCAUAGUUUUAGUUA	0.000679 ± 0.015
UCCUGGAUGAGCUUGCAUAUGUAUUUAGUUA	0.00243 ± 0.005
UCCUGGAUGUCCUUGCAUAUAUUUAGUUA	0.00185 ± 0.0071
UCCUGGAAACAGCUUGCAUAGUAUUUAGUUA	0.347 ± 0.019
UCCUGGAUGUCGAAGCUAAGUAUUUAGUUA	0.000696 ± 0.011
UCCUGGAUGUCGUUGCUAAGUAUUUAGUUA	0.00347 ± 0.004
UCCUGGAUGUGCUUGCAUAUGUAUUUAGUUA	0.00245 ± 0.0054
UCCUGGAACAGCUUGCAUAAUAUUUAGUUA	0.298 ± 0.028
UCCUGGAUGUCGUUGCAUAGUCAUUUAGUUA	0.00441 ± 0.0039
UCCUGGAUGUCCUUGCAUAGAUUUUAGUAA	0.00326 ± 0.0051
UCCUGGAUGUCGAACCGAUAGUAUUUAGUUA	0.00115 ± 0.0075
UCCUGGUACAGCUUGCUAUGUAUUUACAAA	0.0017 ± 0.0059
UCCUGGAUCAGCUUGCUAUGUAUUUAGAAA	0.00524 ± 0.0033
UCCUGGAUGUCGAACCAUAGUAUUUGGUUA	0.000663 ± 0.011
UCCUGGAUGUCGUUGCAUAGAAUUUAGAUA	0.000306 ± 0.025
UCCUGGAUGAGCUUGCAGUAGUAUUUAGUUA	0.00142 ± 0.0066
UCCUGGUUCAGCUUGGAUAGUAUUUAGUUA	0.191 ± 0.022
UCCUGGAUGAGCUUGCAUACGUAUUUAGUUA	0.00188 ± 0.0076

Same assay, conditions: guide: L1MC piRNA 5'p-UAACUAAAUACUAUGCAAGCUGUAGG; auxiliary factor: none (no GTSF1)

Sequence	pre-steady-state target cleavage rate
UCCUGGUUCAGCUUGCAUAGUAUUUAGUAA	0.00573 ± 0.0029
UCCUGGUACAGCUUGCAUUGUAUUUUCAAA	0.00121 ± 0.0089
UCCUGGAUGUCGUUGCUUACUAUUUAGUUA	0.000864 ± 0.0077
UCCUCCUACAGCUUGCAUUCUAUUUACAAA	0.000501 ± 0.012
UCCUGGAUCAGCUUGGAUUGUAUUUAGUUA	0.000957 ± 0.0061
UCCUGGAUGUCCUUGCGAUAGUAUUUAGUUA	0.00131 ± 0.0054
UCCUGGAUGUCGAUGCAUAGUAUGUAGUUA	0.00149 ± 0.0052
UCCUGGAUGUCGUUGCAUAGUAUAAAGUUA	0.00407 ± 0.0022
UCCUGGAUGUCGAAGCAUGGUAUUUAGUUA	0.00436 ± 0.0021
UCCUGGAUGAGCUUGCGAUAGUAUUUAGUUA	0.000219 ± 0.013
UCCUGGAUGUCGUUGCAUACAUUUUAGUUA	0.000733 ± 0.0095
UCCUGGAUGUCGAAGCAAAGUAAUUAGUUA	0.000262 ± 0.016
UCCUGCUACAGCUUGCAAUGUAUUUAGAAA	0.00118 ± 0.0052
UCCUGGAUCAGCUUGCAUACAUUUUUCAAA	0.000302 ± 0.015
UCCUGGUACAGCUUGGUAAGUAUUUACAAA	0.000887 ± 0.0067
UCCUGGAUCCAGCUUGCAUAGUAUUUAGUUA	0.00437 ± 0.003
UCCUGGAUGUCGAUGCAUAGUUUUAGUUA	0.000438 ± 0.012
UCCUGGAUGAGCUUGCAUAUGUAUUUAGUUA	0.0008 ± 0.01
UCCUGGAUCAGCUUCCAUUGUAUUUAGUUA	0.0019 ± 0.0037
UCCUGGAUGUCCUUGCAUAUAUUUAGUUA	0.000744 ± 0.0062

Sequence	pre-steady-state target cleavage rate
UCCUGGAACAGCUUCGUUAGUAUUUAGAAA	0.000489 ± 0.011
UCCUGGAAACAGCUUGCAUAGUAUUUAGUUA	0.0105 ± 0.0038
UCCUGGAUGUCGAAGCUAAGUAUUUAGUUA	0.000314 ± 0.012
UCCUGGAUGUCGUUGCUAAGUAUUUAGUUA	0.0021 ± 0.003
UCCUGGAUGUGCUUGCAUAUGUAUUUAGUUA	0.00121 ± 0.007
UCCUGGAUGUCCUUGCAUAGUAUUUCAGUUA	0.00248 ± 0.0036
UCCUGGAACAGCUUGCAUAAUAUUUAGUUA	0.00254 ± 0.0032
UCCUGGAUGUCGUUGCAUAGUCAUUUAGUUA	0.00434 ± 0.0028
UCCUGGAUGUCCUUGCAUAGAUUUUAGUAA	0.000971 ± 0.0055
UCCUGGAUGUCGAACCGAUAGUAUUUAGUUA	0.000251 ± 0.0088
UCCUGCUACAGCUUGCAUUCAAUUUUCAAA	0.000815 ± 0.0061
UCCUGGUACAGCUUGCUAUGUAUUUACAAA	0.000657 ± 0.0083
UCCUGGAUCAGCUUGCUAUGUAUUUAGAAA	0.00134 ± 0.0044
UCCUGGAUGUCGAACCAUAGUAUUUGGUUA	0.000251 ± 0.018
UCCUGGAUGUCGUUGCAUAGAAUUUAGAUA	0.00022 ± 0.024
UCCUGGAUGAGCUUGCAGUAGUAUUUAGUUA	0.000837 ± 0.008
UCCUGGUUCAGCUUGGAUAGUAUUUAGUUA	0.013 ± 0.0035
UCCUGCUACAGCUUGCAUAGUAAAUACAAA	0.000944 ± 0.0065
UCCUGGAUGUCCUUGACAUAGUAUUUAGUUA	0.00145 ± 0.0045
UCCUGGAUGAGCUUGCAUACGUAUUUAGUUA	0.00117 ± 0.0053

System: MIWI (PIWIL1) piRISC loaded with L1MC piRNA (30 nt)
Assay: as above
Settings: guide: L1MC piRNA 5'p-UAACUAAAUACUAUGCAAGCUGUAGGUCCU; auxiliary factor: 500 nM mouse GTSF1
Procedure, shortened: as §1

Sequence	pre-steady-state target cleavage rate
UCCUGGUUCAGCUUGCAUAGUAUUUAGUAA	0.528 ± 0.055
UCCUGGAUGUCGUUGCUUACUAUUUAGUUA	0.000453 ± 0.026
UCCUGGAUCAGCUUGGAUUGUAUUUAGUUA	0.00177 ± 0.0055
UCCUGGAUGUCCUUGCGAUAGUAUUUAGUUA	0.00103 ± 0.0085
UCCUGGAUGUCGAUGCAUAGUAUGUAGUUA	0.000489 ± 0.017
UCCUGGAUGUCGUUGCAUAGUAUAAAGUUA	0.00117 ± 0.0079
UCCUGGAUGUCGAAGCAUGGUAUUUAGUUA	0.00323 ± 0.0036
UCCUGGAUGAGCUUGCGAUAGUAUUUAGUUA	0.00269 ± 0.0038
UCCUGGAUGUCGUUGCAUACAUUUUAGUUA	0.000615 ± 0.015
UCCUGGAUCAGCUUGCAUACAUUUUUCAAA	0.00114 ± 0.0085
UCCUGGUACAGCUUGGUAAGUAUUUACAAA	0.00184 ± 0.0073
UCCUGGAUCCAGCUUGCAUAGUAUUUAGUUA	1.31 ± 0.081
UCCUGGAUGUCGAUGCAUAGUUUUAGUUA	0.000537 ± 0.02
UCCUGGAUGAGCUUGCAUAUGUAUUUAGUUA	0.00135 ± 0.0068
UCCUGGAUGUCCUUGCAUAUAUUUAGUUA	0.00326 ± 0.005
UCCUGGAAACAGCUUGCAUAGUAUUUAGUUA	1.34 ± 0.051
UCCUGGAUGUCGAAGCUAAGUAUUUAGUUA	0.000381 ± 0.021
UCCUGGAUGUCGUUGCUAAGUAUUUAGUUA	0.000433 ± 0.024
UCCUGGAUGUGCUUGCAUAUGUAUUUAGUUA	0.00129 ± 0.0085
UCCUGGAACAGCUUGCAUAAUAUUUAGUUA	0.559 ± 0.045
UCCUGGAUGUCGUUGCAUAGUCAUUUAGUUA	0.00257 ± 0.0048
UCCUGGAUGUCCUUGCAUAGAUUUUAGUAA	0.00154 ± 0.0078
UCCUGGAUGUCGAACCGAUAGUAUUUAGUUA	0.000726 ± 0.0089
UCCUGGUACAGCUUGCUAUGUAUUUACAAA	0.0017 ± 0.0065
UCCUGGAUCAGCUUGCUAUGUAUUUAGAAA	0.00203 ± 0.0047
UCCUGGAUGUCGAACCAUAGUAUUUGGUUA	0.00032 ± 0.016
UCCUGGAUGUCGUUGCAUAGAAUUUAGAUA	0.000105 ± 0.076
UCCUGGAUGAGCUUGCAGUAGUAUUUAGUUA	0.00111 ± 0.0085
UCCUGGUUCAGCUUGGAUAGUAUUUAGUUA	0.791 ± 0.063
UCCUGGAUGAGCUUGCAUACGUAUUUAGUUA	0.000926 ± 0.014
